PubChem BioAssay AID1259308 | NCATS | 2017

Purpose: 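Candidate targets for better recombinant protein yield in mammalian cells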 (primary screen)
Cell system: human HEK293 embryonic kidney cells stably expressing firefly luciferase (HEK-CMV-Luc2-Hygro)
Reagent: single siRNA against human genes, 0.8 pmol siRNA per well
Timing: 72 h
Read-out: 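Reporter luminescence and viable-cell signal on separate replicate plates, given as percent of non-targeting control and median/MAD z-scores, plus per-cell luciferase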
Direction: total luciferase, z-score and total luciferase, % of control: higher = more reporter protein produced; luciferase per cell, z-score: higher = more reporter output per viable cell; viable cells, % of control: higher = more viable cells
Hit rule: 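An siRNA counts as active if its total luciferase robust z-score exceeds 3; genes with two or more such siRNAs out of three were retested with fresh siRNAs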
Calls: active = raised luciferase; inactive = no rise
In all, the deposit lists about 59,000 reagents; below is a random part of them. Over the whole deposit, about 1,510 (2.6%) were called active. 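Calls use total luciferase alone and ignore viability, so some active siRNAs may act by altering cell number.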 A number with no mark means an inactive call. The numbers tell different reagents against one gene apart.

gene symbol	siRNA no.	total luciferase, z-score	total luciferase, % of control	luciferase per cell, z-score	viable cells, % of control
LINC00442	1	-0.76	66.8	-0.561	86.5
LINC00442	2	1.14	105	0.774	95.3
LINC00442	3	-0.161	78.7	0.198	83.5
FRMD7	1	0.318	88.2	0.228	92.8
FRMD7	2	1.76	117	1.58	86.1
FRMD7	3	0.186	85.6	0.878	75.9
ZNF691	1	0.472	91.3	1.02	78.1
ZNF691	2	0.286	87.6	0.108	95.1
ZNF691	3	0.0178	82.2	-0.152	95.7
CNOT1	1	2.43	130	1.83	89.8
CNOT1	2	4.25 (active)	166	2.51	96
CNOT1	3	5.91 (active)	199	3.82	81.5
NUDT1	1	-0.686	68.2	-0.492	86.8
NUDT1	2	-0.395	74	0.859	66
NUDT1	3	1.7	116	1.32	91.4
DCLK3	1	1.99	122	3.51	53.8
DCLK3	2	0.837	98.5	0.813	88.9
DCLK3	3	-0.65	69	0.0555	75.9
SERP2	1	1.61	114	0.917	100
SERP2	2	0.384	89.5	-0.126	103
SERP2	3	-1.44	53.2	-1.53	89
CCDC69	1	2.25	127	1.49	95.6
CCDC69	2	0.44	90.6	1.18	74.3
CCDC69	3	-1.02	61.6	-0.975	88.9
TLR2	1	0.157	85	0.168	90.9
TLR2	2	-0.794	66.1	-1.05	97.3
TLR2	3	0.306	88	0.963	76.3
TMEM190	1	1.29	108	0.828	96.7
TMEM190	2	0.00523	82	-0.241	97.6
TMEM190	3	-0.581	70.3	-0.165	82.1
CBFA2T2	1	1.34	109	1.09	91.1
CBFA2T2	2	1.68	115	1.71	82.1
CBFA2T2	3	1.02	102	2.02	67.1
MIPOL1	1	0.244	86.7	-0.175	102
MIPOL1	2	-0.31	75.7	-0.139	87.8
MIPOL1	3	0.449	90.8	1.77	63.7
TCEAL8	1	-0.662	68.7	-0.911	97.6
TCEAL8	2	0.487	91.6	1.03	78.1
TCEAL8	3	-1.23	57.5	-1.04	84.4
TRIM77	1	-2.57	30.7	-0.462	38.8
TRIM77	2	-0.787	66.2	-0.445	83.2
TRIM77	3	0.746	96.7	0.703	89.8
AKR7A3	1	-0.151	78.9	-0.962	114
AKR7A3	2	-0.014	81.6	-0.072	92.9
AKR7A3	3	1.73	116	1.72	82.5
ITGB5	1	0.0344	82.6	0.000426	92.3
ITGB5	2	0.188	85.6	-0.421	107
ITGB5	3	-1.58	50.5	-2	95.5
CD58	1	-1.46	52.8	-0.723	71.4
CD58	2	0.507	92	1.52	68.9
CD58	3	2.54	132	1.85	90.8
CLDN14	1	-0.441	73.1	1.28	58.4
CLDN14	2	-0.231	77.3	-0.128	89.3
CLDN14	3	2.65	135	2.86	70.9
NUDT8	1	-0.165	78.6	-0.516	101
NUDT8	2	-1.27	56.7	-1.53	94.6
NUDT8	3	-0.796	66.1	-0.352	81
